Measurements reported in PubChem BioAssay AID1508597 (Cure First, 2020).

Test: 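Genes whose silencing sensitises or protects ovarian cancer cells against rucaparib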 (primary screen)
Cells: human ovarian carcinoma lines grown from tumours: OCI-P5x (papillary serous) and OCI-C5x (clear cell)
Knock-down reagent: siRNA pool against human genes, 1.25 pmol siRNA per well
Time to read-out: 72 h or 96 h, depending on the cell culture
Conditions: rucaparib 20 µM (about IC30) or vehicle, present until read-out
Measurement: 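Luminescent ATP-based viability assay read 72 or 96 h after transfection, depending on culture, given as normalised percent viability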
Reading the numbers: viability, normalised: higher = more viable cells remaining
Rule for the call: 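a well counts as a hit if its normalised viability is under 80 percent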
Meaning of the calls: active = viability under 80%; inactive = viability 80% or more
The whole screen tested about 2,100 reagents; shown is a part drawn at random. 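Calls flag viability under 80% in either arm, not effects specific to rucaparib; the reference for percent is not stated.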 The record does not give: the 100% reference.

gene knocked down | rucaparib or vehicle | cell line | technical replicate | viability, normalised (%) | call
PIP4K2C | Rucaparib | OCI-C5x (clear cell) | 1 | 52.8 | active
PIP4K2C | Rucaparib | OCI-C5x (clear cell) | 2 | 44.2 | active
PIP4K2C | Rucaparib | OCI-C5x (clear cell) | 3 | 50.5 | active
PIP4K2C | Rucaparib | OCI-P5x (serous) | 1 | 88.3 | inactive
PIP4K2C | Rucaparib | OCI-P5x (serous) | 2 | 84.7 | inactive
PIP4K2C | Rucaparib | OCI-P5x (serous) | 3 | 81.4 | inactive
PIP4K2C | Vehicle | OCI-C5x (clear cell) | 1 | 52.6 | active
PIP4K2C | Vehicle | OCI-C5x (clear cell) | 2 | 52.9 | active
PIP4K2C | Vehicle | OCI-C5x (clear cell) | 3 | 41.5 | active
PIP4K2C | Vehicle | OCI-P5x (serous) | 1 | 67.6 | active
PIP4K2C | Vehicle | OCI-P5x (serous) | 2 | 65.2 | active
PIP4K2C | Vehicle | OCI-P5x (serous) | 3 | 75.9 | active
NEK10 | Rucaparib | OCI-C5x (clear cell) | 1 | 47.7 | active
NEK10 | Rucaparib | OCI-C5x (clear cell) | 2 | 52.8 | active
NEK10 | Rucaparib | OCI-C5x (clear cell) | 3 | 58.8 | active
NEK10 | Rucaparib | OCI-P5x (serous) | 1 | 98.4 | inactive
NEK10 | Rucaparib | OCI-P5x (serous) | 2 | 102 | inactive
NEK10 | Rucaparib | OCI-P5x (serous) | 3 | 104 | inactive
NEK10 | Vehicle | OCI-C5x (clear cell) | 1 | 62.2 | active
NEK10 | Vehicle | OCI-C5x (clear cell) | 2 | 70.6 | active
NEK10 | Vehicle | OCI-C5x (clear cell) | 3 | 65.9 | active
NEK10 | Vehicle | OCI-P5x (serous) | 1 | 112 | inactive
NEK10 | Vehicle | OCI-P5x (serous) | 2 | 100 | inactive
NEK10 | Vehicle | OCI-P5x (serous) | 3 | 107 | inactive

Single entries from above:
Result of NEK10, rucaparib or vehicle Vehicle, cell line OCI-P5x (serous), technical replicate 3 under “viability, normalised (%)”: 107
Value of PIP4K2C, rucaparib or vehicle Rucaparib, cell line OCI-P5x (serous), technical replicate 3 in “viability, normalised (%)”: 81.4
PIP4K2C, rucaparib or vehicle Vehicle, cell line OCI-P5x (serous), technical replicate 1, viability, normalised (%) = 67.6
NEK10, rucaparib or vehicle Vehicle, cell line OCI-C5x (clear cell), technical replicate 3, viability, normalised (%): 65.9

Continued.
gene knocked down | rucaparib or vehicle | cell line | technical replicate | viability, normalised (%) | call
RASGRF1 | Rucaparib | OCI-C5x (clear cell) | 1 | 74.4 | active
RASGRF1 | Rucaparib | OCI-C5x (clear cell) | 2 | 52.8 | active
RASGRF1 | Rucaparib | OCI-C5x (clear cell) | 3 | 60.4 | active
RASGRF1 | Rucaparib | OCI-P5x (serous) | 1 | 44.5 | active
RASGRF1 | Rucaparib | OCI-P5x (serous) | 2 | 52.9 | active
RASGRF1 | Rucaparib | OCI-P5x (serous) | 3 | 71.5 | active
RASGRF1 | Vehicle | OCI-C5x (clear cell) | 1 | 79 | active
RASGRF1 | Vehicle | OCI-C5x (clear cell) | 2 | 69.3 | active
RASGRF1 | Vehicle | OCI-C5x (clear cell) | 3 | 48.2 | active
RASGRF1 | Vehicle | OCI-P5x (serous) | 1 | 59.3 | active
RASGRF1 | Vehicle | OCI-P5x (serous) | 2 | 48 | active
RASGRF1 | Vehicle | OCI-P5x (serous) | 3 | 54.2 | active
PIP5K1C | Rucaparib | OCI-C5x (clear cell) | 1 | 51.2 | active
PIP5K1C | Rucaparib | OCI-C5x (clear cell) | 2 | 35.3 | active
PIP5K1C | Rucaparib | OCI-C5x (clear cell) | 3 | 67.5 | active
PIP5K1C | Rucaparib | OCI-P5x (serous) | 1 | 55.5 | active
PIP5K1C | Rucaparib | OCI-P5x (serous) | 2 | 79.2 | active
PIP5K1C | Rucaparib | OCI-P5x (serous) | 3 | 44.7 | active
PIP5K1C | Vehicle | OCI-C5x (clear cell) | 1 | 69.8 | active
PIP5K1C | Vehicle | OCI-C5x (clear cell) | 2 | 42.3 | active
PIP5K1C | Vehicle | OCI-C5x (clear cell) | 3 | 41.6 | active
PIP5K1C | Vehicle | OCI-P5x (serous) | 1 | 68.2 | active
PIP5K1C | Vehicle | OCI-P5x (serous) | 2 | 69.7 | active
PIP5K1C | Vehicle | OCI-P5x (serous) | 3 | 69.3 | active
